No constants are given. Whether binding was seen depends on the method and setting. Binding seen in cells or lysates may run through a third protein. These calls come from enrichment with a bait or labelling near it, and not all partners need be listed.
B1: Ethanolamine ammonia-lyase heavy chain (protein, UniProt P0AEJ6 1-453)
chain: MKLKTTLFGNVYQFKDVKEVLAKANELRSGDVLAGVAAASSQERVAAKQVLSEMTVADIRNNPVIAYEDDCVTRLIQDDVNETAYNQIKNWSISELREYVLSDETSVDDIAFTRKGLTSEVVAAVAKICSNADLIYGAKKMPVIKKANTTIGIPGTFSARLQPNDTRDDVQSIAAQIYEGLSFGVGDAVIGVNPVTDDVENLSRVLDTIYGVIDKFNIPTQGCVLAHVTTQIEAIRRGAPGGLIFQSICGSEKGLKEFGVELAMLDEARAVGAEFNRIAGENCLYFETGQGSALSAGANFGADQVTMEARNYGLARHYDPFIVNTVVGFIGPEYLYNDRQIIRAGLEDHFMGKLSGISMGCDCCYTNHADADQNLNENLMILLATAGCNYIMGMPLGDDIMLNYQTTAFHDTATVRQLLNLRPSPEFERWLESMGIMANGRLTKRAGDPSLFF
B2: Transcriptional regulatory protein tyrR (protein, UniProt P07604 1-513)
chain: MRLEVFCEDRLGLTRELLDLLVLRGIDLRGIEIDPIGRIYLNFAELEFESFSSLMAEIRRIAGVTDVRTVPWMPSEREHLALSALLEALPEPVLSVDMKSKVDMANPASCQLFGQKLDRLRNHTAAQLINGFNFLRWLESEPQDSHNEHVVINGQNFLMEITPVYLQDENDQHVLTGAVVMLRSTIRMGRQLQNVAAQDVSAFSQIVAVSPKMKHVVEQAQKLAMLSAPLLITGDTGTGKDLFAYACHQASPRAGKPYLALNCASIPEDAVESELFGHAPEGKKGFFEQANGGSVLLDEIGEMSPRMQAKLLRFLNDGTFRRVGEDHEVHVDVRVICATQKNLVELVQKGMFREDLYYRLNVLTLNLPPLRDCPQDIMPLTELFVARFADEQGVPRPKLAADLNTVLTRYAWPGNVRQLKNAIYRALTQLDGYELRPQDILLPDYDAATVAVGEDAMEGSLDEITSRFERSVLTQLYRNYPSTRKLAKRLGVSHTAIANKLREYGLSQKKNEE
B3: Bifunctional protein putA (protein, UniProt P09546 1-1320)
chain: MGTTTMGVKLDDATRERIKSAATRIDRTPHWLIKQAIFSYLEQLENSDTLPELPALLSGAANESDEAPTPAEEPHQPFLDFAEQILPQSVSRAAITAAYRRPETEAVSMLLEQARLPQPVAEQAHKLAYQLADKLRNQKNASGRAGMVQGLLQEFSLSSQEGVALMCLAEALLRIPDKATRDALIRDKISNGNWQSHIGRSPSLFVNAATWGLLFTGKLVSTHNEASLSRSLNRIIGKSGEPLIRKGVDMAMRLMGEQFVTGETIAEALANARKLEEKGFRYSYDMLGEAALTAADAQAYMVSYQQAIHAIGKASNGRGIYEGPGISIKLSALHPRYSRAQYDRVMEELYPRLKSLTLLARQYDIGINIDAEESDRLEISLDLLEKLCFEPELAGWNGIGFVIQAYQKRCPLVIDYLIDLATRSRRRLMIRLVKGAYWDSEIKRAQMDGLEGYPVYTRKVYTDVSYLACAKKLLAVPNLIYPQFATHNAHTLAAIYQLAGQNYYPGQYEFQCLHGMGEPLYEQVTGKVADGKLNRPCRIYAPVGTHETLLAYLVRRLLENGANTSFVNRIADTSLPLDELVADPVTAVEKLAQQEGQTGLPHPKIPLPRDLYGHGRDNSAGLDLANEHRLASLSSALLNSALQKWQALPMLEQPVAAGEMSPVINPAEPKDIVGYVREATPREVEQALESAVNNAPIWFATPPAERAAILHRAAVLMESQMQQLIGILVREAGKTFSNAIAEVREAVDFLHYYAGQVRDDFANETHRPLGPVVCISPWNFPLAIFTGQIAAALAAGNSVLAKPAEQTPLIAAQGIAILLEAGVPPGVVQLLPGRGETVGAQLTGDDRVRGVMFTGSTEVATLLQRNIASRLDAQGRPIPLIAETGGMNAMIVDSSALTEQVVVDVLASAFDSAGQRCSALRVLCLQDEIADHTLKMLRGAMAECRMGNPGRLTTDIGPVIDSEAKANIERHIQTMRSKGRPVFQAVRENSEDAREWQSGTFVAPTLIELDDFAELQKEVFGPVLHVVRYNRNQLPELIEQINASGYGLTLGVHTRIDETIAQVTGSAHVGNLYVNRNMVGAVVGVQPFGGEGLSGTGPKAGGPLYLYRLLANRPESALAVTLARQDAKYPVDAQLKAALTQPLNALREWAANRPELQALCTQYGELAQAGTQRLLPGPTGERNTWTLLPRERVLCIADDEQDALTQLAAVLAVGSQVLWPDDALHRQLVKALPSAVSERIQLAKAENITAQPFDAVIFHGDSDQLRALCEAVAARDGTIVSVQGFARGESNILLERLYIERSLSVNTAAAGGNASLMTIG

The chains behind the UniProt entries cited, without tags or fusion partners.
UniProt P0A6X3: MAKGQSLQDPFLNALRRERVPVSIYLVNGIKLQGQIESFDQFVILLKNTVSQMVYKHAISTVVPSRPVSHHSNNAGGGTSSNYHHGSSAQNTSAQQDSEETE

Each binder was assayed against HfqTT (TAP-tagged Hfq) (E. coli) (UniProt P0A6X3) (assay: affinity purification with mass spectrometry; TAP-tag: HfqTT (or the TAP-tag peptide as control) as bait in extracts of IBhfq95Δhfq, exponential and stationary phase; IgG Sepharose, TEV cleavage, calmodulin beads; half of each sample treated with 0.1 µg/µl RNase A for 30 min at 37 °C before the calmodulin beads; an interaction called RNA dependent when the number of peptides fell by more than 30% after RNase A).
In the case of B1, the binding is reported as “binds”. With B2 the binding was “binds”. B3 was tested, and the binding was “binds”.
